Chains of the proteins cited; added tags and fusions are not shown. Lines headed by an entry give the natural chain unless they say otherwise; changes in a name come on top.
UniProt A6NGB9: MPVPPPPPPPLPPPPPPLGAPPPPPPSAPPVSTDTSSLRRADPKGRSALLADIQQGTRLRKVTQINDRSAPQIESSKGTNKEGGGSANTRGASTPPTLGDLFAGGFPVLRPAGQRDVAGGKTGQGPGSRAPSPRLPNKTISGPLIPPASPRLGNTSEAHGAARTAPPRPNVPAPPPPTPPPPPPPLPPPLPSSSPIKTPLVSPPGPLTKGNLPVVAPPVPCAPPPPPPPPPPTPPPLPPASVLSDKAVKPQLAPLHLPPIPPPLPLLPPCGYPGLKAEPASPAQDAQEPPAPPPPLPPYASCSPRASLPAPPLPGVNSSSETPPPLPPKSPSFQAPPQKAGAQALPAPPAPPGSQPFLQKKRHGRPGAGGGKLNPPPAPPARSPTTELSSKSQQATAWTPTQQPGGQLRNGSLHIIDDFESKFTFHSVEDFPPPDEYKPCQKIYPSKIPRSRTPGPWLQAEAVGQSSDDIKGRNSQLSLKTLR
UniProt O15234, whole entry: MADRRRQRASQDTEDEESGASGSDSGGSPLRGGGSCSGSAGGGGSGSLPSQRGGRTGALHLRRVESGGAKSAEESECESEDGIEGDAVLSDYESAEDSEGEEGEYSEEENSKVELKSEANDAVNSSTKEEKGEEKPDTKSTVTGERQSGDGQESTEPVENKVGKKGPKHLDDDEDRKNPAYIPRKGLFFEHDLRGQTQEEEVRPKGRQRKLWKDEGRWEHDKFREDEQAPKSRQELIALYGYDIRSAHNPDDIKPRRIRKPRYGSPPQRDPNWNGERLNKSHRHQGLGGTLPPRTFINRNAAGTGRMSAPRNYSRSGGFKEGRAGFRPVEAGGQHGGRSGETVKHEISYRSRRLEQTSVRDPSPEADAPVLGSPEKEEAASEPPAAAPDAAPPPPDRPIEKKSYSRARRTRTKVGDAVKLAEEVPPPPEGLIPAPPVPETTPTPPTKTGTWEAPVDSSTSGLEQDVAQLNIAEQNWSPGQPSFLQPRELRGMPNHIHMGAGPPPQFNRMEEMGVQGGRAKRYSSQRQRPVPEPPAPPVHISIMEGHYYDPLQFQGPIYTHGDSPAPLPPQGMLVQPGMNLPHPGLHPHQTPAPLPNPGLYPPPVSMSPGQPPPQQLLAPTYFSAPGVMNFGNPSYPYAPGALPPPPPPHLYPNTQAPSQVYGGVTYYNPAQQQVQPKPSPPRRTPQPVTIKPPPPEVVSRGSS
UniProt A8MPS7: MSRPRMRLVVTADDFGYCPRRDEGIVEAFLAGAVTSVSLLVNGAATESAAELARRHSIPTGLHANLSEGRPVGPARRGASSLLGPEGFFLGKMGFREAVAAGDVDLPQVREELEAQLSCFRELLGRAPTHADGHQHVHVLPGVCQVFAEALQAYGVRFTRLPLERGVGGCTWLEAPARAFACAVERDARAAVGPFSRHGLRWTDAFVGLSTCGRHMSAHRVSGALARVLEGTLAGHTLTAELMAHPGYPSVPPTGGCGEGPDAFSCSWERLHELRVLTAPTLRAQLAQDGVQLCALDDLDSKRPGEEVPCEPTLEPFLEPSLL
UniProt O15047, whole entry: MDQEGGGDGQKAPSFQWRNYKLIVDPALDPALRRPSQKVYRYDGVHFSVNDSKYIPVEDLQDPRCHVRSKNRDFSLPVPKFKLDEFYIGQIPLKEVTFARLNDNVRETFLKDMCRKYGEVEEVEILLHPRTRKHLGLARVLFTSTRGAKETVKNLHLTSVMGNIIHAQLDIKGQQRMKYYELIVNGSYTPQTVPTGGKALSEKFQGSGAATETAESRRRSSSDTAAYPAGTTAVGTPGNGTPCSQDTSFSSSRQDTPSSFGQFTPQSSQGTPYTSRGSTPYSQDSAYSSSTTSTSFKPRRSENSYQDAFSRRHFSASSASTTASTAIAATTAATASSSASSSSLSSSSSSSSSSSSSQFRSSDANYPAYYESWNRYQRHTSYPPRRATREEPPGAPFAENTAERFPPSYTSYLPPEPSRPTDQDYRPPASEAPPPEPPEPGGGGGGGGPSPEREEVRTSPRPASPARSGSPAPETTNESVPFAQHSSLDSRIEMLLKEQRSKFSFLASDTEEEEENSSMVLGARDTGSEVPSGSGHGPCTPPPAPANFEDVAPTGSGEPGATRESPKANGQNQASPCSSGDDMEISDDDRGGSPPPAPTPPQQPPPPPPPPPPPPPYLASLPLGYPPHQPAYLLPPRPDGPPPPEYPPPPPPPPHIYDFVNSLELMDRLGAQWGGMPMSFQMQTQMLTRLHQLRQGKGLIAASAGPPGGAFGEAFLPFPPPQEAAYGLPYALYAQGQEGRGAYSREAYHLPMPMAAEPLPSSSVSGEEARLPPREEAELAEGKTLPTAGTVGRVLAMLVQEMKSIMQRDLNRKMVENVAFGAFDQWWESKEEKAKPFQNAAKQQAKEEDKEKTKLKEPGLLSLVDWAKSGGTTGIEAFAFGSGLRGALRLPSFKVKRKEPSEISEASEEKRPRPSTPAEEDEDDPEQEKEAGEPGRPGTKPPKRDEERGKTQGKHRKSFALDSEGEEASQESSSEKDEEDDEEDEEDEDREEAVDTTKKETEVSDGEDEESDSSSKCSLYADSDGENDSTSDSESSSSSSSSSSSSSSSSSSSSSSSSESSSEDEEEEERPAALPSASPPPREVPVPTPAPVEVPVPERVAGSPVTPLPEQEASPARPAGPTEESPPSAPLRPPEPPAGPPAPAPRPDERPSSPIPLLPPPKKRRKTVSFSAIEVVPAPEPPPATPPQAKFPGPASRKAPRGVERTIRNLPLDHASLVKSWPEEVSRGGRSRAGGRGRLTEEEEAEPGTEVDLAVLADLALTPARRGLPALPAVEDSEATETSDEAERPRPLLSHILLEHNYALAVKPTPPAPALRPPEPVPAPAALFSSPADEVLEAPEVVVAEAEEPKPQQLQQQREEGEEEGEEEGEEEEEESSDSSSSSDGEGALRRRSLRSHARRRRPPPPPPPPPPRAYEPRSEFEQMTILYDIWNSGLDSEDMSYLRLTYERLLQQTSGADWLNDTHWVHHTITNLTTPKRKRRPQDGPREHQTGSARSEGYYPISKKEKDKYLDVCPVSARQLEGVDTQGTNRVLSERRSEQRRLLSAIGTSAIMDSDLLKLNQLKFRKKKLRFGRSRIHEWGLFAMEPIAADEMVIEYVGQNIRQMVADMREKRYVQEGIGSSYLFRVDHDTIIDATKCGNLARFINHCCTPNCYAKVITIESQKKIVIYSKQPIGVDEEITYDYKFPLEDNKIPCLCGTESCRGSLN
UniProt O00291: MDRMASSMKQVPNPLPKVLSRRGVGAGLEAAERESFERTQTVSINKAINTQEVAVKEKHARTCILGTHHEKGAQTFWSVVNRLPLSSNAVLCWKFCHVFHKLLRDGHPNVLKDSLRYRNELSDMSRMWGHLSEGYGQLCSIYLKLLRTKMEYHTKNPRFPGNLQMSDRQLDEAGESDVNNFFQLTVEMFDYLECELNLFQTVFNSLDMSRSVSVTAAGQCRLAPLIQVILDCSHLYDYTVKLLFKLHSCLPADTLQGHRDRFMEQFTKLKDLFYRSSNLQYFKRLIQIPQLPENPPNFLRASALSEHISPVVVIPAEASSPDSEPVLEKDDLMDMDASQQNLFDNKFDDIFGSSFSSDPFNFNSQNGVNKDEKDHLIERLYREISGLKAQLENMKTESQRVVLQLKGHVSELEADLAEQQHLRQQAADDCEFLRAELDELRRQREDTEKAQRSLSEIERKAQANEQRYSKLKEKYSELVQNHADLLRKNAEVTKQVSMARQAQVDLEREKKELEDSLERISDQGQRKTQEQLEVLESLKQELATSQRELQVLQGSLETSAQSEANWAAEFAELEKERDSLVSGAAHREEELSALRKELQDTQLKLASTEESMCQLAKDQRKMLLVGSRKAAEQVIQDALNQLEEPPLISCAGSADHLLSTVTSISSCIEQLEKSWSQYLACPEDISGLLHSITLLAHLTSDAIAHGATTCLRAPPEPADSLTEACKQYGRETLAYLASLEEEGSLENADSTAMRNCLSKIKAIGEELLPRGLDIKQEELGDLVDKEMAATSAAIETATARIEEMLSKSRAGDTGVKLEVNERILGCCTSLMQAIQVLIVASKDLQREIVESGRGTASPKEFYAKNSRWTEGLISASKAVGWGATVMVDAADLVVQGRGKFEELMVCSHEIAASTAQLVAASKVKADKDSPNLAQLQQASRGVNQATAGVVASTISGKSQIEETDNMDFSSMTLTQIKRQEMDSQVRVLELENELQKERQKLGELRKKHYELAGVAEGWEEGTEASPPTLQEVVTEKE
UniProt O14618: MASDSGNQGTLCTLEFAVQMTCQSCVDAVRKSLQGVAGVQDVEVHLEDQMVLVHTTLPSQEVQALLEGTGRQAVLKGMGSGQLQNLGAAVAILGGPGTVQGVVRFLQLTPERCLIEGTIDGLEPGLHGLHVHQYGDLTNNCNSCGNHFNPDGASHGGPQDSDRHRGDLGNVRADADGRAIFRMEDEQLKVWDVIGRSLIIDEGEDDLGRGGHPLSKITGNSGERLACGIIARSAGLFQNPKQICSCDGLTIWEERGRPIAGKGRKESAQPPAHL
UniProt O15357: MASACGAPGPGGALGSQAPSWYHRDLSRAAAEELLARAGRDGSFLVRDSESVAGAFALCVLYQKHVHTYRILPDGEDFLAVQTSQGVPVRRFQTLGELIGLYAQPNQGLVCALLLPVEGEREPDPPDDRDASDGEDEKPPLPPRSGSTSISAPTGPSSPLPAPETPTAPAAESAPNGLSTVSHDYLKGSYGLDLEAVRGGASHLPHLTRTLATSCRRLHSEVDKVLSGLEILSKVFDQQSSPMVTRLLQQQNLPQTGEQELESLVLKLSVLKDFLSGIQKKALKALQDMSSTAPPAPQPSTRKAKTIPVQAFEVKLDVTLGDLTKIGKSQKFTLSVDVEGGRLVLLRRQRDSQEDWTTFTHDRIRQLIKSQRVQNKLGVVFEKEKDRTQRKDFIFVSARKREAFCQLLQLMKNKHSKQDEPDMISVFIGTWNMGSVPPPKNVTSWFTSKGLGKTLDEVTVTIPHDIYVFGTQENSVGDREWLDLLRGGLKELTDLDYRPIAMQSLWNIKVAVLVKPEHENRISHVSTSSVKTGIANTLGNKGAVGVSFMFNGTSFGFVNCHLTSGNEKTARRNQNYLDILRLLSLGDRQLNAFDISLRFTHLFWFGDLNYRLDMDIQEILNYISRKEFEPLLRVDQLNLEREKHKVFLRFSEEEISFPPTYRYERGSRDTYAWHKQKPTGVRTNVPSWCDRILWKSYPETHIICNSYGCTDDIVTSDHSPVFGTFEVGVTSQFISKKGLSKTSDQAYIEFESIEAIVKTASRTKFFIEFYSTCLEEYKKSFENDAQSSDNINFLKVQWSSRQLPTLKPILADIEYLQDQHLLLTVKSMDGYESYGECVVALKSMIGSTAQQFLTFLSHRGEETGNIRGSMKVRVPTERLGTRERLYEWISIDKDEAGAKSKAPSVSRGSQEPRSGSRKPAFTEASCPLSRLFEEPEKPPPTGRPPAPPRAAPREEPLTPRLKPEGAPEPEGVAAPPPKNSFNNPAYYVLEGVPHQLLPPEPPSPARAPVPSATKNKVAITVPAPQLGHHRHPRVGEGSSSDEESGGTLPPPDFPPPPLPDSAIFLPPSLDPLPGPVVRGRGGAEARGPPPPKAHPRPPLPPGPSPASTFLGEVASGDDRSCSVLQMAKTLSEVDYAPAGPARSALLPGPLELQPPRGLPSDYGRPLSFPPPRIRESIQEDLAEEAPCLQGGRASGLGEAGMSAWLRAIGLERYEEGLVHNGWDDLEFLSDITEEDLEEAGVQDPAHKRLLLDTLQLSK
UniProt O15391, whole entry: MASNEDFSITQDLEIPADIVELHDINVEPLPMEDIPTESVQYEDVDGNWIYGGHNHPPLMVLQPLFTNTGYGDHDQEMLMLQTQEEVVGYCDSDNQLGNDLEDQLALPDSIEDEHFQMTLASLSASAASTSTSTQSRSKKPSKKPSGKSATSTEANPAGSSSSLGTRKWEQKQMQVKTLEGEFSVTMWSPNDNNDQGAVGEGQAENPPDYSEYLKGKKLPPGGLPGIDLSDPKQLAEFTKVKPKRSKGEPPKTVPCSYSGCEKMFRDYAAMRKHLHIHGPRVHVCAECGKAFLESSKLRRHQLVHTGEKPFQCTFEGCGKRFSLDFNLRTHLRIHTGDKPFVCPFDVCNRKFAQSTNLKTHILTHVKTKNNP
UniProt O00151: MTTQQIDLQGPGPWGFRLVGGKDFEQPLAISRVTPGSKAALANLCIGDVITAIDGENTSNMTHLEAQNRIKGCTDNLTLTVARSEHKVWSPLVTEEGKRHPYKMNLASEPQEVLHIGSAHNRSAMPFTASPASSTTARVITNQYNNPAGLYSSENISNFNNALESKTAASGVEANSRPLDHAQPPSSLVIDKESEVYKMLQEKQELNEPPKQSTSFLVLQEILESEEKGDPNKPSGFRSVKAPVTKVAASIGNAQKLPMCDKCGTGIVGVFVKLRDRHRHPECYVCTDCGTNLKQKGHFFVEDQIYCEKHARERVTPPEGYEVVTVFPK

Some of the results follow. Small differences around the control level are noise.
Each target was assayed with CN[C@@H]1C[C@H]2O[C@@](C)([C@@H]1OC)n1c3ccccc3c3c4c(c5c6ccccc6n2c5c31)C(=O)NC4 [staurosporine] (assay: log2 fold change of tryptic peptide abundance, ligand vs vehicle (limited proteolysis) (log2 ratio); higher = more trypsin-susceptible (destabilized)). Details: ligand concentration: 20 uM; sample: K562 cleared lysate; digestion: 4 min, 22 C (HT-PELSA RT4min, Orbitrap Astral).
Work on “UniProt E9PRG8 (peptide sequence: TSEPQLKR, peptide start residue: 97)” yielded a log2 fold change of 0.176.
In the case of “WIPF3 (peptide sequence: TPGPWLQAEAVGQSSDDIK, peptide start residue: 453) (UniProt A6NGB9)”, the log2 fold change is reported as -0.305.
Target “CASC3 (peptide sequence: LWKDEGR, peptide start residue: 211) (UniProt O15234)” has a log2 fold change of -0.52.
Target “MEIS2 (peptide sequence: SDHEELSGSSTNLADHNPSSWR, peptide start residue: 198) (UniProt O14770)” has a log2 fold change of 0.426.
Target “NDUFAB1 (peptide sequence: LMCPQEIVDYIADKK, peptide start residue: 138) (UniProt O14561)” has a log2 fold change of 0.557.
Work on “NFIB (peptide sequence: DQDMSSPTTMK, peptide start residue: 307) (UniProt O00712)” yielded a log2 fold change of 0.367.
In the case of “CDK2AP1 (peptide sequence: EIRPTYAGSK, peptide start residue: 76) (UniProt O14519)”, the log2 fold change is reported as 0.242.
For “WWP2 (peptide sequence: TTTWQRPTAEYVR, peptide start residue: 355) (UniProt O00308)”, the log2 fold change was -0.15.
In the case of “PSMA7 (peptide sequence: DIVVLGVEK, peptide start residue: 39) (UniProt O14818)”, the log2 fold change is reported as -0.19.
For “ARID1A (peptide sequence: SSEAIKESSK, peptide start residue: 1929) (UniProt O14497)”, the log2 fold change was -0.692.
“ZNF316 (peptide sequence: CAFCGAGFGR, peptide start residue: 431) (UniProt A6NFI3)” was tested, and the log2 fold change was -0.487.
For “YDJC (peptide sequence: RHSIPTGLHANLSEGRPVGPAR, peptide start residue: 55) (UniProt A8MPS7)”, the log2 fold change was 0.665.
With “GIPC1 (peptide sequence: LVFHTQLAHGSPTGR, peptide start residue: 58) (UniProt O14908)” the log2 fold change was -0.506.
For “SETD1A (peptide sequence: RSENSYQDAFSR, peptide start residue: 300) (UniProt O15047)”, the log2 fold change was -0.164.
In the case of “ARPC3 (peptide sequence: ETKDTDIVDEAIYYFK, peptide start residue: 35) (UniProt O15145)”, the log2 fold change is reported as 0.194.
For “HIP1 (peptide sequence: ELEDSLER, peptide start residue: 512) (UniProt O00291)”, the log2 fold change was -0.22.
For “UniProt C4AMC7 (peptide sequence: SQVQAIGEK, peptide start residue: 42)”, the log2 fold change was 0.495.
In the case of “UniProt O14618 (peptide sequence: QICSCDGLTIWEER, peptide start residue: 242)”, the log2 fold change is reported as -0.247.
In the case of “BIRC5 (peptide sequence: KQFEELTLGEFLK, peptide start residue: 91) (UniProt O15392)”, the log2 fold change is reported as -0.189.
With “HMX3 (peptide sequence: TLFAPASAAAAAAAAAAAAAK, peptide start residue: 54) (UniProt A6NHT5)” the log2 fold change was 0.357.
“UniProt O14529 (peptide sequence: VVLAPEEK, peptide start residue: 1249)” showed a log2 fold change of 0.036.
Work on “INPPL1 (peptide sequence: AAAEELLAR, peptide start residue: 29) (UniProt O15357)” yielded a log2 fold change of 0.333.
With “DDX11L8 (peptide sequence: HQKDFASIVLLDQR, peptide start residue: 870) (UniProt A8MPP1)” the log2 fold change was -0.705.
With “CETN3 (peptide sequence: DAFELFDTDKDEAIDYHELK, peptide start residue: 32) (UniProt O15182)” the log2 fold change was -0.329.
For “UniProt O15391 (peptide sequence: VHVCAECGK, peptide start residue: 324)”, the log2 fold change was 0.221.
Work on “UniProt O15054 (peptide sequence: SESEVLEEISR, peptide start residue: 909)” yielded a log2 fold change of -0.268.
Target “N4BP3 (peptide sequence: APGTLPEADPSARPEEEAR, peptide start residue: 349) (UniProt O15049)” has a log2 fold change of 0.302.
With “DVL2 (peptide sequence: VIYHLDEEETPYLVK, peptide start residue: 16) (UniProt O14641)” the log2 fold change was -0.182.
Work on “PDLIM1 (peptide sequence: TAASGVEANSRPLDHAQPPSSLVIDK, peptide start residue: 167) (UniProt O00151)” yielded a log2 fold change of -0.286.
“WDR46 (peptide sequence: ALLEKVPAELICLDPR, peptide start residue: 504) (UniProt O15213)” gave a log2 fold change of -0.32.
For “PIP5K1B (peptide sequence: IVVMNNVLPR, peptide start residue: 185) (UniProt O14986)”, the log2 fold change was -0.557.
“TBKBP1 (peptide sequence: QICGLEQQLR, peptide start residue: 161) (UniProt A7MCY6)” was tested, and the log2 fold change was -0.364.
Target “UniProt B7ZLF3 (peptide sequence: IHSGEKPHQCAQCGR, peptide start residue: 117)” has a log2 fold change of 0.828.
Work on “PITPNM1 (peptide sequence: EGPGTPPTTLAR, peptide start residue: 1219) (UniProt O00562)” yielded a log2 fold change of 0.212.
With “APAF1 (peptide sequence: KADLPEQAHSIIK, peptide start residue: 303) (UniProt O14727)” the log2 fold change was -0.318.
“SLC27A2 (peptide sequence: GEVGLLVCK, peptide start residue: 420) (UniProt O14975)” was tested, and the log2 fold change was 0.428.

Source: the supplement of paper PMC12819154, “High-throughput peptide-centric local stability assay extends protein–ligand identification to membrane proteins, tissues and bacteria” (Nature Structural & Molecular Biology, 2025)
